This passage reports IC50 results from patent publication US20170038384A1, “TREATMENT OF TUMORS EXPRESSING MUTANT P53” (SLOAN-KETTERING INSTITUTE FOR CANCER RESEARCH, priority 2014, published 2017).

The test has as its system murine KPC pancreatic cancer cells. Kind of test: MTS assay of KPC cell viability/proliferation. Format: cell-based. Particulars: Mus musculus, 72 hours, read-out: IC50, inhibit cell proliferation. The method, then:
FIG. 5B is a graph of MTS assay (E490) of murine KPC and human A2.1 cells treated with crenolanib with various doses for 72 hours. Normalized values are expressed as means±SD form quadruple replicates.
Normalized values are expressed as means±SD form quadruple replicates.
All cell lines were maintained in DMEM+10% FBS, at 37° C. in 5% CO2. Stable cell lines expressing shRNAs were generated by retroviral mediated gene transfer. Briefly, Phoenix or Ampho packaging cells (for murine or human cell lines, respectively) were transfected by the calcium phosphate method with vectors expressing NF-YA, NF-YB, p53, p73, PDGFRa, PDGFRb or Renilla-control shRNAs, and the generated viruses were harvested to infect KPC, KPflC, or a series of human pancreatic, breast, lung and colon cancer cell lines. Infected cells were selected with puromycin and experiments were carried out on derived cell populations. To generate cells stably expressing mutant p53, p73 or PDGFRb, KPflC cells were infected with MSCV-p53-R175H, -R273H, PDGFRb or pcDNA3-HA-p73α and selected in puromycin and G418 respectively to yield stable pools.
(In general: Formazan colour is commonly taken as a measure of viable cells.)

Turning to `Cc1ccc(NC(=O)c2ccc(CN3CCN(C)CC3)cc2)cc1Nc1nccc(-c2cccnc2)n1` [imatinib], the IC50 is 29.7 µM.
